Some entries of the source have several records that differ or are many. The list is limited to them. An entry can have further records. The records of an entry do not match, cause unknown; they may come from other doses, times, organisms or constructs than stated.
Molecular target: yDna2 (Saccharomyces cerevisiae, UniProt P38859)
Test: High-throughput fluorescence nuclease assay with yDna2 (triply labeled (dT)30 ssDNA)
Assay type: biochemical, yeast
Settings: read-out: IC50 from Screening In Vitro; compounds that inhibit yDna2 but not T5 nuclease; 384-well platform

By UniProt entry, the sequences of proteins in these tests, tags left out.
UniProt P38859, whole entry: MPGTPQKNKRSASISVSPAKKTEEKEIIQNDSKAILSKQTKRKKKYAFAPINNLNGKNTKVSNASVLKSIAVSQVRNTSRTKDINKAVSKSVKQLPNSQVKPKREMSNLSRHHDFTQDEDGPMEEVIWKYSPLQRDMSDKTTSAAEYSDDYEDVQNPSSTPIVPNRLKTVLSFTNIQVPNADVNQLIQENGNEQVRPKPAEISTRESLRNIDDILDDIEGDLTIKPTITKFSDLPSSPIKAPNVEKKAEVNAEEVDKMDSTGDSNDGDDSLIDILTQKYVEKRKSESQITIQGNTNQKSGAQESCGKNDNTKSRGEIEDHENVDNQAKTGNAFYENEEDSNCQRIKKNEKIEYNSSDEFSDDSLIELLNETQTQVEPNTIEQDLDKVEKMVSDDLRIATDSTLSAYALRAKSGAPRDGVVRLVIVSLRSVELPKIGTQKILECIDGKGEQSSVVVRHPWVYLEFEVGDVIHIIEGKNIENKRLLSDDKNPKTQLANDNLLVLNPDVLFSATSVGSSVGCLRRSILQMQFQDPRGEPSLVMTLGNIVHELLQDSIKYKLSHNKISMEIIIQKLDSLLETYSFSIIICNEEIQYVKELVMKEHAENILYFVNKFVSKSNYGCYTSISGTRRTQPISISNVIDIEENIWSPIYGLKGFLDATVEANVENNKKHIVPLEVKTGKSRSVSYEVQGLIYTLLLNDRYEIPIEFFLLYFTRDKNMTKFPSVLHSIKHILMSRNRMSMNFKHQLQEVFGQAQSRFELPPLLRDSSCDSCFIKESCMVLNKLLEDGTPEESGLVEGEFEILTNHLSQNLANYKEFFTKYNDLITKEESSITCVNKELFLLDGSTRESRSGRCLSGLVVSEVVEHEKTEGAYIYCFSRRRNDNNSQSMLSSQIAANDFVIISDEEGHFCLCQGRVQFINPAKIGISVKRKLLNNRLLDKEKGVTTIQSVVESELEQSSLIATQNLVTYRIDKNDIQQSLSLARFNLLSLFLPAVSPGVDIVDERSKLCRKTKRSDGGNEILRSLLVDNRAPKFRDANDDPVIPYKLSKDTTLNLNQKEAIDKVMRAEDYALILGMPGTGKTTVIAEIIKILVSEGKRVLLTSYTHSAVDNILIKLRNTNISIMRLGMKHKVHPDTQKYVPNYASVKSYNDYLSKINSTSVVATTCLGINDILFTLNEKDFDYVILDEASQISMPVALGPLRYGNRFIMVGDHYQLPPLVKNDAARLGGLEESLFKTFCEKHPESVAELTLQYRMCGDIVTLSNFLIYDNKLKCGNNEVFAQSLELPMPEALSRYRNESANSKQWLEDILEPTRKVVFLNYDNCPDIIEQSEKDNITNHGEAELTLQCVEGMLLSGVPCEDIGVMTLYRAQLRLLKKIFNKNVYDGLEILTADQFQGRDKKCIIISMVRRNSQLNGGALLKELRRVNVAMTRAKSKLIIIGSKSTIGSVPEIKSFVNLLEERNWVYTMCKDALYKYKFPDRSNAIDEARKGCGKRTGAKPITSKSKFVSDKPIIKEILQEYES

## COC1=C(N)C(=O)c2nc(-c3nc(C(=O)O)c(C)c(-c4ccc(OC)c(OC)c4O)c3N)ccc2C1=O
  IC50: 5.9 µM and 2.5 µM

— publication PMC5520492, “Inhibition of DNA2 nuclease as a therapeutic strategy targeting replication stress in cancer cells” (Oncogenesis, 2017)
